Reference: patent US20180207294A1, “NON-ALCOHOLIC FATTY LIVER REGULATING FACTOR 14-3-3 PROTEIN” (Korea University Research and Business Foundation, priority 2015, published 2018)
Results are given in words; binding and its absence hold for the method and conditions named. Binding seen in cells or lysates may run through a third protein. Some entries that bind do so weakly or less than the wild type. For some assays here: Sequences can lack the tags named with a protein. Blank lines part the entries; values can stand above or below the molecule they belong to.

Sequences of proteins named here, by UniProt entry; tags and fusion partners are left off.
UniProt P37231: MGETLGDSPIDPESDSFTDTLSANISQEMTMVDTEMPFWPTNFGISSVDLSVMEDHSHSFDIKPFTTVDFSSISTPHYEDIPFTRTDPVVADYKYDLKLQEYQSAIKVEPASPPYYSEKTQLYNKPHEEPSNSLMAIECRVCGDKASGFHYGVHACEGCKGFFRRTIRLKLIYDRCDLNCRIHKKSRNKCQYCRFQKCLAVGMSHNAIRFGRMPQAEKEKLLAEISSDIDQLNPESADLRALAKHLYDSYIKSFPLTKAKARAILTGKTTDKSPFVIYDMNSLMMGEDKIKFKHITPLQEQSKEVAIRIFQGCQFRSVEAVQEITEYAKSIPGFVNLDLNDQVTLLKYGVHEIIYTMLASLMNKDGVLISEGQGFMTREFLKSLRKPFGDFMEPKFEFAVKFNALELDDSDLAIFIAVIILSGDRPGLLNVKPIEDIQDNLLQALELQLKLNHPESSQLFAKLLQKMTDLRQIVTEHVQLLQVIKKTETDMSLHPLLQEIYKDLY
UniProt P31946: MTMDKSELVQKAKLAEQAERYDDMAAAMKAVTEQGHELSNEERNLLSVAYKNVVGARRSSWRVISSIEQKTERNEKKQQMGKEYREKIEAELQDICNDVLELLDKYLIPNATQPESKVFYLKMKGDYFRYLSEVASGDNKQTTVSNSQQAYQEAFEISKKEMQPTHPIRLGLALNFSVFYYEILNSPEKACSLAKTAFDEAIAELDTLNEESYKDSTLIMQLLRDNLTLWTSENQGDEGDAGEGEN

What was measured:
mGST-PPARγ2 [1] = target: mGST-PPARγ2 (UniProt P37231); experiment: GST pull-down competition, HA-14-3-3β (2 and 4 µg DNA) against GFP-14-3-3γ
mGST-PPARγ2 [2] = target: mGST-PPARγ2 (UniProt P37231); experiment: GST pull-down of mGST-PPARγ2 from HEK-293T lysate, western blot, with/without 200 µM oleic acid
Myc-PPARγ2 = Myc-PPARγ2 (UniProt P37231); experiment: GST pull-down from HEK-293T lysate, western blot, with/without 10 µM pioglitazone
Flag-PPARγ2 (1-505) = Flag-PPARγ2 (1-505) (UniProt P37231); experiment: GST pull-down from HEK-293T lysate, western blot (WT against S112A and S273A)
mGST-PPARγ2 [3] = target: mGST-PPARγ2 (UniProt P37231); experiment: GST pull-down competition, HA-14-3-3γ (2 and 4 µg DNA) against GFP-14-3-3β

B1: HA-14-3-3γ (protein, UniProt P61981 1-247, looked up, not shown: small tags and cut ends)
chain: MVDREQLVQKARLAEQAERYDDMAAAMKNVTELNEPLSNEERNLLSVAYKNVVGARRSSWRVISSIEQKTSADGNEKKIEMVRAYREKIEKELEAVCQDVLSLLDNYLIKNCSETQYESKVFYLKMKGDYYRYLAEVATGEKRATVVESSEKAYSEAHEISKEHMQPTHPIRLGLALNYSVFYYEIQNAPEQACHLAKTAFDDAIAELDTLNEDSYKDSTLIMQLLRDNLTLWTSDQQDDDGGEGNN
binding (mGST-PPARγ2 [3]): binds
binding (mGST-PPARγ2 [2]): binds

B2: mGST-14-3-3γ (protein, UniProt P61981 1-247, looked up, not shown: a dimerising Fc or GST)
chain: B1 chain
binding (Myc-PPARγ2): binds
binding (Flag-PPARγ2 (1-505)): binds

Now from value to molecule:

binding (mGST-PPARγ2 [1]): binds
binding (mGST-PPARγ2 [2]): binds
Molecule: HA-14-3-3β (from UniProt P31946 1-246)

binding (Myc-PPARγ2): binds
binding (Flag-PPARγ2 (1-505)): binds
Molecule: mGST-14-3-3β (from UniProt P31946 1-246)
